Laboratory results from patent US4568685A, “N-[(1H-1,2,4-Triazol-1-yl)alkyl]-arylamides” (American Cyanamid Company, priority 1984, dated 1986).
Counter-ions that a name gives are not always drawn. The name of at least one read-out is uncertain.

Molecular target: T1, thromboxane synthetase enzyme (Rattus norvegicus, UniProt P49430)
T1 construct: The platelets were isolated by centrifuging the PRP; endogenous in cells; host or cells: washed intact blood platelets of Okamoto-Aoki spontaneously hypertensive rats (SHR; animals from Taconic Farms)
T1 sequence (P49430 1-533): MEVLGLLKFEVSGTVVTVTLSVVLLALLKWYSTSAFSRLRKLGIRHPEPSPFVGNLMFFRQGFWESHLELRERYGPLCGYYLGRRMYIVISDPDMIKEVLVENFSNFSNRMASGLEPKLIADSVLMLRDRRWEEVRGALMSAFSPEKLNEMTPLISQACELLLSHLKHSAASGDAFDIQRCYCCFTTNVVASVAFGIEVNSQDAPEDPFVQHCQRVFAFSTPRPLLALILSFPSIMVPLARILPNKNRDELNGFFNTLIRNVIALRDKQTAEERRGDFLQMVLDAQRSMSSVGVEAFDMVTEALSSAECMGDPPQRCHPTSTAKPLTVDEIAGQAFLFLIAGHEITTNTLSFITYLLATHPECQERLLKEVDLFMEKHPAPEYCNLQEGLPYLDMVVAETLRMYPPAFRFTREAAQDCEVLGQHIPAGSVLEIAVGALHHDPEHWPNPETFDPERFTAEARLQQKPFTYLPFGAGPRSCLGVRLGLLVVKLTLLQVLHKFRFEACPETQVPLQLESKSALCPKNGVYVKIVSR
Test: Inhibition of thromboxane (TXB2) formation in washed platelets of spontaneously hypertensive rats, TXB2 by radioimmunoassay
Format: cell-based, Okamoto-Aoki spontaneously hypertensive rats (SHR)
Details: Dose 10^-4 (unit not given); SHR platelet suspension, about 10 minutes at about 37° C.

Going from `O=C1c2ccccc2C(=O)N1CCCCn1cncn1` [2-[4-(1H-1,2,4-triazol-1-yl)butyl]-1H-isoindol-1,3(2H)-dione] to `O=C(NCCCCn1cncn1)c1ccccc1-c1ccccc1` [Example 6, N--[4-(1H--1,2,4-triazol-1-yl)butyl] [1,1'-biphenyl]-2-carboxamide, fumarate], the “% Inhibition (of TXB2 formation)” value rises from 70% to 89%.

Compared with `O=C(NCCCCn1cncn1)c1ccc(Cl)c(Cl)c1` [Example 5, 3,4-Dichloro-N-[4-(1H-1,2,4-triazol-1-yl)butyl]benzamide], `O=C(NCCCn1cncn1)c1ccc(Cl)c(Cl)c1` [Example 12, 3,4-Dichloro-N-[3-(1H-1,2,4-triazol-1-yl)propyl]benzamide] is lower in “% Inhibition (of TXB2 formation)” value: 82% for the first, 80% for the second.

Compared with `O=C(NCCCCn1cncn1)c1ccc(Br)cc1` [Example 8, 4-bromo-N--[4-(1H--1,2,4-triazol-1-yl)butyl]benzamide], `O=C(NCCCn1cncn1)c1ccc(Br)cc1` [Example 23, 4-bromo-N--[3-(1H--1,2,4-triazol-1-yl)propyl]benzamide] is lower in “% Inhibition (of TXB2 formation)” value: 88% for the first, 40% for the second.

Going from `CC(C)(C)c1ccc(C(=O)NCCCn2cncn2)cc1` [Example 13, 4-(1,1-dimethylethyl)-N--[3-(1H--1,2,4-triazol-1-yl)propyl]benzamide] to `Cc1ccc(C(=O)NCCCn2cncn2)cc1` [Example 21, 4-methyl-N--[3-(1H--1,2,4-triazol-1-yl)propyl]benzamide], the “% Inhibition (of TXB2 formation)” value falls from 86% to 66%.

First: O=C(NCCCn1cncn1)c1cccc([N+](=O)[O-])c1 [Example 14, 3-nitro-N--[3-(1H--1,2,4-triazol-1-yl)propyl]benzamide]
Second: O=C(NCCCn1cncn1)c1cccc(Cl)c1 [Example 15, 3-chloro-N--[3-(1H--1,2,4-triazol-1-yl)propyl]benzamide]
The “% Inhibition (of TXB2 formation)” value of the first is lower: 72% for the first, 86% for the second.

Compared with `O=C(NCCCn1cncn1)c1ccc(F)cc1` [Example 16, 4-fluoro-N--[3-(1H--1,2,4-triazol-1-yl)propyl]benzamide], `O=C(NCCCn1cncn1)c1ccc(Cl)cc1` [Example 22, 4-chloro-N--[3-(1H--1,2,4-triazol-1-yl)propyl]benzamide] is lower in “% Inhibition (of TXB2 formation)” value: 67% for the first, 16% for the second.

`O=C(NCCCn1cncn1)c1ccccc1-c1ccccc1` [Example 18, N--[3-(1H--1,2,4-triazol-1-yl)propyl] [1,1'-biphenyl]-2-carboxamide, fumarate] and `O=C(NCCCn1cncn1)c1ccc(C(=O)c2ccccc2)cc1` [Example 35, 4-benzoyl-N--[3-(1H--1,2,4-triazol-1-yl)propyl]benzamide] are the same in “% Inhibition (of TXB2 formation)” value: 65% for the first, 65% for the second.

Compared with `N#Cc1ccc(C(=O)NCCCn2cncn2)cc1` [Example 19, 4-cyano-N--[3-(1H--1,2,4-triazol-1-yl)propyl]benzamide], `O=C(NCCCn1cncn1)c1ccc(I)cc1` [Example 27, 4-Iodo-N-[3-(1H-1,2,4-triazol-1-yl)propyl]benzamide] is higher in “% Inhibition (of TXB2 formation)” value: 12% for the first, 82% for the second.

Compared with `O=C(NCCCn1cncn1)c1cccc(F)c1` [Example 20, 3-fluoro-N--[3-(1H--1,2,4-triazol-1-yl)propyl]benzamide], `O=C(NCCCn1cncn1)c1cccc(Br)c1` [Example 36, 3-bromo-N--[3-(1H--1,2,4-triazol-1-yl)propyl]benzamide] is higher in “% Inhibition (of TXB2 formation)” value: 82% for the first, 85% for the second.

First: CC(=O)c1ccc(C(=O)NCCCn2cncn2)cc1 [Example 28, 4-acetyl-N--[3-(1H--1,2,4-triazol-1-yl)propyl]benzamide]
Second: CC(=O)Nc1ccc(C(=O)NCCCn2cncn2)cc1 [Example 34, 4-(acetylamino)-N--[3-(1H--1,2,4-triazol-1-yl)propyl]benzamide]
The “% Inhibition (of TXB2 formation)” value of the first is lower: 52% for the first, 75% for the second.

First: O=C(C=Cc1ccc(Cl)cc1)NCCCn1cncn1 [Example 29, 3-(4-chlorophenyl)-N--[3-(1H--1,2,4-triazol-1-yl)propyl]-2-propenamide]
Second: CSc1ccc(C(=O)NCCCn2cncn2)cc1 [Example 30, 4-(methylthio)-N--[3-(1H--1,2,4-triazol-1-yl)propyl]benzamide]
The “% Inhibition (of TXB2 formation)” value of the first is lower: 47% for the first, 71% for the second.

First: COc1ccc(C(=O)NCCCn2cncn2)cc1 [Example 31, 4-methoxy-N--[3-(1H--1,2,4-triazol-1-yl)propyl]benzamide]
Second: CS(=O)(=O)c1ccc(C(=O)NCCCn2cncn2)cc1 [Example 32, 4-(methylsulfonyl)-N--[3-(1H--1,2,4-triazol-1-yl)propyl]benzamide]
The “% Inhibition (of TXB2 formation)” value of the first is higher: 71% for the first, 26% for the second.

Compared with `COc1cc(C(=O)NCCCn2cncn2)cc(OC)c1OC` [Example 33, 3,4,5-trimethoxy-N--[3-(1H--1,2,4-triazol-1-yl)propyl]benzamide], `O=C(Cc1cccc2ccccc12)NCCCCn1cncn1` [N--[4-(1H--1,2,4-triazol-1-yl)butyl]-1-naphthalene acetamide, fumarate] is higher in “% Inhibition (of TXB2 formation)” value: 64% for the first, 88% for the second.

Same assay, conditions: no dose printed on this line; SHR platelet suspension, about 10 minutes at about 37° C.

In the case of `O=C1c2ccccc2C(=O)N1CCCCCn1cncn1` [2-[5-(1H--1,2,4-triazol-1-yl)-pentyl]-1H--isoindol-1,3-(2H)--dione], the “% Inhibition (of TXB2 formation)” value is reported as 79%.
